Measurements as given in the supplement of paper PMC9744312.
Where a name gives a salt, the structure may show the parent alone. The list shows a part of the results. Single values of this set are uncertain.

These compounds were tested on Peyronie's disease tunica albuginea primary fibroblasts (assay: inhibition of TGF-beta1-induced alpha-SMA expression (myofibroblast transformation), relative to TGF-beta1-only and untreated controls; higher = stronger inhibition of myofibroblast transformation). Conditions: 10 µM; TGF-beta1 10 ng/mL; 72 h.

SMILES | inhibition of TGF-beta1-induced alpha-SMA expression [%]
C[C@H](N[C@@H](CCc1ccccc1)C(=O)O)C(=O)N1CCC[C@H]1C(=O)O [Enalaprilat Dihydrate] | -1.88
CN(C)[C@@H]1C(O)=C(C(N)=O)C(=O)[C@@]2(O)C(O)=C3C(=O)c4c(O)cccc4[C@@](C)(O)[C@H]3C[C@@H]12 [Tetracycline HCl] | 42.5
CNC[C@@H](O)c1ccc(O)c(O)c1 [L-Adrenaline] | 5.79
CC(C)Nc1cc(-c2c[nH]c(C(=O)N[C@H](CO)c3cccc(Cl)c3)c2)c(Cl)cn1 | -55.1
Cc1ccc(N(CC2=NCCN2)c2cccc(O)c2)cc1 [Phentolamine Mesylate] | -11.4
Cc1c(C(C)C)c(=O)n(-c2ccccc2)n1C [Propyphenazone (4-Isopropylantipyrine)] | 13.5
CCc1ccc(CCOc2ccc(CC3SC(=O)NC3=O)cc2)nc1 (stereo not drawn) [Pioglitazone] | 9.33
CCc1ccc(CCOc2ccc(CC3SC(=O)NC3=O)cc2)nc1 (stereo not drawn) [Pioglitazone HCl] | 14.6
CCCSc1ccc2[nH]c(NC(=O)OC)nc2c1 [Albendazole] | 91.3
Cc1c(Cl)cccc1Nc1ccccc1C(=O)O [Tolfenamic Acid] | 14.3
CO[C@H]1/C=C/O[C@@]2(C)Oc3c(C)c(O)c4c(O)c(c(/C=N/N5CCN(C)CC5)c(O)c4c3C2=O)NC(=O)/C(C)=C\C=C\[C@H](C)[C@H](O)[C@@H](C)[C@@H](O)[C@@H](C)[C@H](OC(C)=O)[C@@H]1C [Rifampin] | 26.3
CC(C(=O)O)c1ccc(CC2CCCC2=O)cc1 (stereo not drawn) [Loxoprofen] | 42.9
CC(C(=O)O)c1ccc(CC2CCCC2=O)cc1 (stereo not drawn) [Loxoprofen Sodium] | -8.69
CC[C@H]1OC(=O)[C@H](C)[C@@H](O[C@H]2C[C@@](C)(OC)[C@@H](O)[C@H](C)O2)[C@H](C)[C@@H](O[C@@H]2O[C@H](C)C[C@H](N(C)C)[C@H]2O)[C@](C)(O)C[C@@H](C)C(=O)[C@H](C)[C@@H](O)[C@]1(C)O [Erythromycin thiocyanate] | 47.9
CC[C@H]1OC(=O)[C@H](C)[C@@H](O[C@H]2C[C@@](C)(OC)[C@@H](O)[C@H](C)O2)[C@H](C)[C@@H](O[C@@H]2O[C@H](C)C[C@H](N(C)C)[C@H]2O)[C@](C)(O)C[C@@H](C)C(=O)[C@H](C)[C@@H](O)[C@]1(C)O [Erythromycin] | 70.9
COc1cccc(-c2c(C)n(Cc3c(F)cccc3C(F)(F)F)c(=O)n(C[C@H](NCCCC(=O)O)c3ccccc3)c2=O)c1F [Elagolix Sodium] | 53.5
CC1=C(/C=C/C(C)=C/C=C/C(C)=C/C=C/C=C(C)/C=C/C=C(C)/C=C/C2=C(C)CCCC2(C)C)C(C)(C)CCC1 [Beta Carotene] | 29.3
CC(C)(Oc1ccc(CCNC(=O)c2ccc(Cl)cc2)cc1)C(=O)O [Bezafibrate] | -18.9
OCCN1CCN(CCCN2c3ccccc3Sc3ccc(C(F)(F)F)cc32)CC1 [Fluphenazine dihydrochloride] | 34.6
c1ccc(CC2=NCCN2)cc1 [Tolazoline HCl] | -28.5
O=C(Cn1ccnc1[N+](=O)[O-])NCc1ccccc1 [Benznidazole] | -8.89
O=C1c2ccccc2C(=O)C1c1ccccc1 [Phenindione] | 15.2
O=C(c1cc(Cc2n[nH]c(=O)c3ccccc23)ccc1F)N1CCN(C(=O)C2CC2)CC1 | -80.2

For reference, part of the list above:
SMILES | inhibition of TGF-beta1-induced alpha-SMA expression [%]
CC(C)(Oc1ccc(CCNC(=O)c2ccc(Cl)cc2)cc1)C(=O)O [Bezafibrate] | -18.9
OCCN1CCN(CCCN2c3ccccc3Sc3ccc(C(F)(F)F)cc32)CC1 [Fluphenazine dihydrochloride] | 34.6

Continued:

SMILES | inhibition of TGF-beta1-induced alpha-SMA expression [%]
Clc1ccc2c(c1)C(N1CCNCC1)=Nc1ccccc1O2 [Amoxapine] | 44.6
O=C(O)CCc1nc(-c2ccccc2)c(-c2ccccc2)o1 [Oxaprozin] | 2.23
OC[C@@H](O)[C@@H](O)[C@H](O)[C@H](O)CO [D-Mannitol] | 2.9
C[C@H](NCc1ccc(OCc2cccc(F)c2)cc1)C(N)=O [Safinamide] | 20.6
C[C@H](NCc1ccc(OCc2cccc(F)c2)cc1)C(N)=O [Safinamide Mesylate] | 7.75
CCn1cc(C(=O)O)c(=O)c2cc(F)c(N3CCNCC3)nc21 [Enoxacin Sesquihydrate] | -15.4
CCn1cc(C(=O)O)c(=O)c2cc(F)c(N3CCNCC3)nc21 [Enoxacin] | 16.9
CC(=O)OCC(=O)NCCCOc1cccc(CN2CCCCC2)c1 [Roxatidine Acetate HCl] | 13.1
OC[C@H]1OC(O)[C@H](O)[C@@H](O)[C@@H]1O (stereo partly drawn) [Dextrose] | 27.7
CO/N=C(\C(=O)N[C@@H]1C(=O)N2C(C(=O)O)=CCS[C@H]12)c1csc(N)n1 [Ceftizoxime] | 18.3
CCCc1ncc(C[n+]2ccccc2C)c(N)n1 [Amprolium HCl] | -7.95
CC(C(=O)O)c1cccc(Oc2ccccc2)c1 (stereo not drawn) [Fenoprofen calcium hydrate] | 15.2
CC(C(=O)O)c1cccc(Oc2ccccc2)c1 (stereo not drawn) [Fenoprofen Calcium] | 11.5
Oc1ccc(C2CNCCc3c2cc(O)c(O)c3Cl)cc1 (stereo not drawn) [Fenoldopam mesylate] | -52.7
CC(C)=CCOc1ccc(/C=C/C(=O)c2ccc(OCC=C(C)C)cc2OCC(=O)O)cc1 [Sofalcone] | 17.1
CCN(CC)CCCC(C)Nc1ccnc2cc(Cl)ccc12 (stereo not drawn) [Chloroquine Phosphate] | 60.3
CS(=O)(=O)c1ccc([C@@H](O)[C@@H](CF)NC(=O)C(Cl)Cl)cc1 [Florfenicol] | -15.5
C[C@@H](O)[C@H]1C(=O)N2C(C(=O)O)=C(S[C@@H]3CN[C@H](C(=O)Nc4cccc(C(=O)O)c4)C3)[C@H](C)[C@H]12 [Ertapenem sodium] | 26.9
CCOCCn1c(C2CCN(CCc3ccc(C(C)(C)C(=O)O)cc3)CC2)nc2ccccc21 [Bilastine] | 24
CCCOC(C(=O)OC1CCN(C)CC1)(c1ccccc1)c1ccccc1 [Propiverine hydrochloride] | 13.5
C[N+](C)(C)CCOP(=O)(O)OP(=O)([O-])OC[C@H]1O[C@@H](n2ccc(N)nc2=O)[C@H](O)[C@@H]1O [Citicoline sodium] | -1.6
Nc1ccc(S(=O)(=O)NC(=O)c2ccccc2)cc1 [Sulfabenzamide] | 75.8
CCCCCOc1ccc(-c2ccc(-c3ccc(C(=O)N[C@H]4C[C@@H](O)[C@@H](O)NC(=O)[C@@H]5[C@@H](O)[C@@H](C)CN5C(=O)[C@H]([C@@H](C)O)NC(=O)[C@H]([C@H](O)[C@@H](O)c5ccc(O)cc5)NC(=O)[C@@H]5C[C@@H](O)CN5C(=O)[C@H]([C@@H](C)O)NC4=O)cc3)cc2)cc1 | > 100

Retrieved one by one from the entries so far (three):
SMILES | inhibition of TGF-beta1-induced alpha-SMA expression [%]
Clc1ccc2c(c1)C(N1CCNCC1)=Nc1ccccc1O2 [Amoxapine] | 44.6
CCCCCOc1ccc(-c2ccc(-c3ccc(C(=O)N[C@H]4C[C@@H](O)[C@@H](O)NC(=O)[C@@H]5[C@@H](O)[C@@H](C)CN5C(=O)[C@H]([C@@H](C)O)NC(=O)[C@H]([C@H](O)[C@@H](O)c5ccc(O)cc5)NC(=O)[C@@H]5C[C@@H](O)CN5C(=O)[C@H]([C@@H](C)O)NC4=O)cc3)cc2)cc1 | > 100
Oc1ccc(C2CNCCc3c2cc(O)c(O)c3Cl)cc1 (stereo not drawn) [Fenoldopam mesylate] | -52.7

Next records.

SMILES | inhibition of TGF-beta1-induced alpha-SMA expression [%]
CC(C)c1nc(N(C)S(C)(=O)=O)nc(-c2ccc(F)cc2)c1/C=C/[C@@H](O)C[C@@H](O)CC(=O)O [Rosuvastatin Calcium] | 54.7
CC(C)c1nc(N(C)S(C)(=O)=O)nc(-c2ccc(F)cc2)c1/C=C/[C@@H](O)C[C@@H](O)CC(=O)O [Rosuvastatin] | 67
N[C@@H](CS)C(=O)O [L-Cysteine HCl] | 3.99
C1N2CN3CN1CN(C2)C3 [Methenamine] | 15.9
C[Se]CC[C@H](N)C(=O)O [L-SelenoMethionine] | -5.41
CCCCCN(C)CCC(O)(P(=O)(O)O)P(=O)(O)O [Ibandronate sodium] | 15.2
CC(C)OC(=O)C(C(=O)OC(C)C)=C1SC=CS1 [Malotilate] | -5.3
CS(=O)(=O)Nc1cc2occ(NC=O)c(=O)c2cc1Oc1ccccc1 [Iguratimod] | 40.3
C[C@@H](O)[C@H]1C(=O)N2C(C(=O)O)=C(SCCNC=N)C[C@H]12 [Imipenem] | 28.3
COc1cccc(CCc2ccccc2OCC(CN(C)C)OC(=O)CCC(=O)O)c1 (stereo not drawn) [Sarpogrelate hydrochloride] | 26.3
c1ccc2c(c1)CCCC2C1=NCCN1 (stereo not drawn) [Tetrahydrozoline HCl] | 0.558
CC(=O)S[C@@H]1CC2=CC(=O)CC[C@]2(C)[C@H]2CC[C@@]3(C)[C@@H](CC[C@@]34CCC(=O)O4)[C@H]12 [Spironolactone] | -49.4
C#Cc1cccc(Nc2ncnc3cc(OC)c(OCCCCCCC(=O)NO)cc23)c1 | > 100
CCCc1cc(C(N)=S)ccn1 [Protionamide] | 7.63
C=C1CC[C@H](O)C/C1=C/C=C1\CCC[C@]2(C)[C@@H]([C@H](C)CCCC(C)C)CC[C@@H]12 [cholecalciferol (Vitamin D3)] | 16.1
C[C@H]1O[C@H](O[C@H]2[C@H](O)[C@@H](O)[C@@H](O[C@H]3[C@H](O)[C@@H](O)C(O)O[C@@H]3CO)O[C@@H]2CO)[C@H](O)[C@@H](O)[C@@H]1N[C@H]1C=C(CO)[C@@H](O)[C@H](O)[C@H]1O (stereo partly drawn) [Acarbose] | 16.7
CC[C@H]1[C@@H](O)[C@@H]2[C@H](CC[C@]3(C)[C@@H]([C@H](C)CCC(=O)O)CC[C@@H]23)[C@@]2(C)CC[C@@H](O)C[C@@H]12 [Obeticholic Acid] | 3.44
CNC1CCCN(c2c(F)cc3c(=O)c(C(=O)O)cn(C4CC4)c3c2OC)C1 (stereo not drawn) [Balofloxacin] | 6.3
CC(C)Oc1ccc(-c2nc(-c3cccc4c3CC[C@@H]4NCCO)no2)cc1C#N [Ozanimod (RPC1063)] | 38.9
CN1CCC(=C2c3ccccc3C=Cc3ccccc32)CC1 [Cyproheptadine hydrochloride] | 87.9
CN1CCC(=C2c3ccccc3C=Cc3ccccc32)CC1 [Cyproheptadine HCl] | 32.4
CO[C@H]1/C=C/O[C@@]2(C)Oc3c(C)c(O)c4c(O)c(c(/C=N/N5CCN(C6CCCC6)CC5)c(O)c4c3C2=O)NC(=O)/C(C)=C\C=C\[C@H](C)[C@H](O)[C@@H](C)[C@@H](O)[C@@H](C)[C@H](OC(C)=O)[C@@H]1C [Rifapentine] | -5.79
